Values from PubChem BioAssay AID1053208 (Peter MacCallum Cancer Centre, 2014).

Assay: 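Find knock-downs that sensitise mouse osteosarcoma cells to doxorubicin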 (primary screen)
Cells: mouse osteosarcoma cells, early-passage culture from an engineered mouse model of fibroblastic bone tumour
Reagents: siRNA pool against mouse genes, 40 nM
Duration: about 120 h (48 h before drug, then 72 h with drug)
Challenge: doxorubicin 100 nM for 72 h, roughly 30-40% inhibitory dose
Detection: 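Viability read as ATP luminescence after 72 h of 100 nM doxorubicin or none, duplicate wells averaged, scaled to non-targeting siRNA, then expressed as robust z-scores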
Scale: viability z-score with doxorubicin: higher = more viable cells under doxorubicin; viability z-score without drug: higher = more viable cells with knock-down alone
Hit rule: 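Called active if knock-down leaves viability unchanged without drug (z within -2 to 2) but lowers it with doxorubicin (z at or under -2)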
Here is a random part of about 17,000 reagents tested. 788 of them (4.7%) count as active. 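Calls rest on z-score classes alone; an extra cut-off of viability at most 70% of control was not applied to them.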 Unmarked entries are inactive. Further read-outs or replicates are left out here. Reagent sequences are not shown.

After knock-down of Gmpr the results were combined z-score class no change with or without drug; viability z-score with doxorubicin -1.12; viability z-score without drug -0.84.
Silencing of Igsf3 resulted in: combined z-score class no change with or without drug; viability z-score with doxorubicin -0.9; viability z-score without drug 0.51.
With knock-down of Krtap5-1 the results were combined z-score class low cell count with doxorubicin only (active); viability z-score with doxorubicin -2.47; viability z-score without drug -0.51.
Depletion of Slain1 gave: combined z-score class no change with or without drug; viability z-score with doxorubicin 0.56; viability z-score without drug -1.18.
Silencing of Fads1 resulted in: combined z-score class no change with or without drug; viability z-score with doxorubicin 0.79; viability z-score without drug 0.17.
With knock-down of Pygm, the screen gave combined z-score class no change with or without drug; viability z-score with doxorubicin -1.01; viability z-score without drug 0.84.
Tgfbi gave combined z-score class no change with or without drug; viability z-score with doxorubicin -0.67; viability z-score without drug -0.17.
For Slco4c1 the deposit lists combined z-score class no change with or without drug; viability z-score with doxorubicin 0.9; viability z-score without drug 0.17.
With knock-down of Fbxl5, the screen gave combined z-score class no change with or without drug; viability z-score with doxorubicin -0.9; viability z-score without drug -0.34.
Silencing of Sipa1l1 gave: combined z-score class no change with or without drug; viability z-score with doxorubicin 0.9; viability z-score without drug 1.35.
Against Ddx3y, the entry reads combined z-score class no change with or without drug; viability z-score with doxorubicin 0.67; viability z-score without drug 0.34.
Snai1 scored combined z-score class no change with or without drug; viability z-score with doxorubicin -0.79; viability z-score without drug -0.51.
Uqcc1 scored combined z-score class no change with or without drug; viability z-score with doxorubicin 0; viability z-score without drug -0.51.
Silencing of Rab11fip1 came out at: combined z-score class no change with or without drug; viability z-score with doxorubicin 1.35; viability z-score without drug 0.84.
With knock-down of H2ap the results were combined z-score class no change with or without drug; viability z-score with doxorubicin -0.9; viability z-score without drug -0.51.
With knock-down of Rhno1, the record shows combined z-score class no change with or without drug; viability z-score with doxorubicin -0.11; viability z-score without drug -0.17.
Against Polr1b, the entry reads combined z-score class low cell count without drug only; viability z-score with doxorubicin -1.8; viability z-score without drug -3.2.
Esyt2 scored combined z-score class no change with or without drug; viability z-score with doxorubicin -0.22; viability z-score without drug 0.84.
Foxn2 showed combined z-score class no change with or without drug; viability z-score with doxorubicin 0.9; viability z-score without drug 0.67.
With knock-down of Rnf187 the results were combined z-score class no change with or without drug; viability z-score with doxorubicin 1.12; viability z-score without drug 0.84.
After knock-down of Trappc14 the results were combined z-score class no change with or without drug; viability z-score with doxorubicin 1.69; viability z-score without drug 0.51.
With knock-down of Rnf168 the results were combined z-score class no change with or without drug; viability z-score with doxorubicin 0.67; viability z-score without drug 0.84.
Against Chlsn, the values are combined z-score class low cell count with doxorubicin only (active); viability z-score with doxorubicin -2.25; viability z-score without drug -0.51.
Against Scgb1b27, the values are combined z-score class no change with or without drug; viability z-score with doxorubicin -0.45; viability z-score without drug -0.51.
Depletion of Cyct came out at: combined z-score class no change with or without drug; viability z-score with doxorubicin 0.22; viability z-score without drug -0.51.
For Rbmx2 the deposit lists combined z-score class no change with or without drug; viability z-score with doxorubicin 1.12; viability z-score without drug 1.18.
With knock-down of Aarsd1 the results were combined z-score class no change with or without drug; viability z-score with doxorubicin -0.9; viability z-score without drug 0.84.
Silencing of Slc28a3 gave: combined z-score class no change with or without drug; viability z-score with doxorubicin 1.46; viability z-score without drug 1.85.
For Jup the deposit lists combined z-score class no change with or without drug; viability z-score with doxorubicin -1.35; viability z-score without drug -1.85.
Fer scored combined z-score class no change with or without drug; viability z-score with doxorubicin 0.22; viability z-score without drug 0.
For Zfp655, the entry reads combined z-score class no change with or without drug; viability z-score with doxorubicin 1.01; viability z-score without drug 0.84.
With knock-down of Ncr1 the results were combined z-score class no change with or without drug; viability z-score with doxorubicin 0.67; viability z-score without drug -1.18.
With knock-down of Csprs, the screen gave combined z-score class low cell count with doxorubicin only (active); viability z-score with doxorubicin -2.02; viability z-score without drug 0.17.
Against Cacna1e the deposit lists combined z-score class no change with or without drug; viability z-score with doxorubicin 0.56; viability z-score without drug 0.
For Tkfc, the values are combined z-score class no change with or without drug; viability z-score with doxorubicin 0.9; viability z-score without drug 0.51.
For A730008H23Rik the deposit lists combined z-score class no change with or without drug; viability z-score with doxorubicin -0.9; viability z-score without drug -1.35.
